Source: publication PMC12727705
Results are given in words; binding and its absence hold for the method and conditions named. In cells and extracts the contact can be indirect. A yes stands for co-enrichment or nearness to the bait. Other partners may have been found. Where a sequence is shown, tags or fusion partners need not be part of it.

T1: DAF-16::TurboID::mNeongreen::3xFLAG (C. elegans) (UniProt O16850)
T1 sequence: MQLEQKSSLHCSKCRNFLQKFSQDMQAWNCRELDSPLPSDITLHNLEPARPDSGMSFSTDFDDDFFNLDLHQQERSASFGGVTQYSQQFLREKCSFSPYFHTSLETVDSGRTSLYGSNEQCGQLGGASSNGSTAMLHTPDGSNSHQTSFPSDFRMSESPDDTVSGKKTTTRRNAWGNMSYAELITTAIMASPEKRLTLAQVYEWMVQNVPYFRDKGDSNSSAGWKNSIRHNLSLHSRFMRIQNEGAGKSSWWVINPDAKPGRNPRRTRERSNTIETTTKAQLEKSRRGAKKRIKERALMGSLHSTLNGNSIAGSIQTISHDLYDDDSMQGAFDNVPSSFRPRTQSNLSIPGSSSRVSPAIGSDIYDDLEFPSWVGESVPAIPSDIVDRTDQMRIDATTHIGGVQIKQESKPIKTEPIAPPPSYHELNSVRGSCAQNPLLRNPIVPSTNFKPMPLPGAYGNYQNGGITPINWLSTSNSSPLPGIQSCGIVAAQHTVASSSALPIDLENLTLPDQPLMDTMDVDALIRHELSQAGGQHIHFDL


Biological target: T1, DAF-16::TurboID::mNeongreen::3xFLAG (C. elegans)
Assay: proximity labelling; TurboID fused to endogenous DAF-16 in living C. elegans, wild-type (cytoDAF-16) or daf-2(e1370) (nucDAF-16) background; L4/young adults, 1 mM biotin in M9 for 2 h at 21 °C; biotinylated proteins affinity purified on streptavidin and identified by mass spectrometry; control: wild type without …

Binder	binding
AKT-2 (enzyme, UniProt Q9XTG7 1-528) MSTENAHLQKEDIVIESWLHKKGEHIRNWRPRYFILFRDGTLLGFRSKPKEDQPLPEPLNNFMIRDAATVCLDKPRPNMFIVRCLQWTTVIERTFYADSADFRQMWIEAIQAVSSHNRLKENAGNTSMQEEDTNGNPSGESDVNMDATSTRSDNDFESTVMNIDEPEEVPRKNTVTMDDFDFLKVLGQGTFGKVILCREKSSDKLYAIKIIRKEMVVDRSEVAHTLTENRVLYACVHPFLTLLKYSFQAQYHICFVMEFANGGELFTHLQRCKTFSEARTRFYGSEIILALGYLHHRNIVYRDMKLENLLLDRDGHIKITDFGLCKEEIKYGDKTSTFCGTPEYLAPEVIEDIDYDRSVDWWGVGVVMYEMMCGRLPFSAKENGKLFELITTCDLKFPNRLSPEAVTLLSGLLERVPAKRLGAGPDDAREVSRAEFFKDVDWEATLRKEVEPPFKPNVMSETDTSFFDREFTSMPVQLTPPRRGEELPTVDEEEELQANFIQFASYYVSGSLERSYDTNRSADKYEIR	binds
DPFF-1 (protein, UniProt Q09477 1-372) MISENGYMDLMRNCIKWNSRQMEDRKKRLRFPYYEHQTATAQRESRFTTRNVDHMYPSNDPNTVVQFATERWKKSKSQPPSDAVEMSMFLRENPSIQVAIDHLTPQVVGPTTESVSDSSNDSTTIRPSRQTQIKEEYRDDYVLDDELSPDEFGSDEDDWSSRKRRKGNLGPVQKATSSRKKVPTTRSSVSRLTPSRSIVKETKYEEPEEKTYPCDKCSAKYKSLAGLSYHQSYLHDQKSSQPLVKLLSPSIEISTSCDFCSGTAFMNKNTKLPEDLVSCHDCGRSGHPSCLNFNQNVTKIIKRSGWQCLECKSCTICGTSENDDKLLFCDDCDRGYHLYCLTPALEKAPDDEYSCRLCQVEFGDKASAPAKK	binds
FCP-1 (enzyme, UniProt Q95QG8 1-659) MDIKFEGNDAECTAGLKKASEGSFVLKDHVLIEFKINGKVAGKIKTPCEGVVTFGKGLKPGIVLNKGQVIATVSECTHAIVIKDMCATCGKDLREKGGRAGQRKEQSTANVSMIHHVPELIVSDTLAKEIGSADENNLITNRKLVLLVDLDQTIIHTSDKPMTVDTENHKDITKYNLHSRVYTTKLRPHTTEFLNKMSNMYEMHIVTYGQRQYAHRIAQILDPDARLFEQRILSRDELFSAQHKTNNLKALFPCGDNLVVIIDDRSDVWMYSEALIQIKPYRFFKEVGDINAPKNSKEQMPVQIEDDAHEDKVLEEIERVLTNIHDKYYEKHDLRGSEEVLLDVKEVIKEERHKVLDGCVIVFSGIVPMGEKLERTDIYRLCTQFGAVIVPDVTDDVTHVVGARYGTQKVYQANRLNKFVVTVQWVYACVEKWLKADENLFQLTKESTPPVGRPLGSKYVNDLANMDTIGKAALADMNNEVDEALSDDEDDGDNEDEDDDGNDVGEDKGDENLEEKQEKNEEEMDDVEQNGSVENQSGDALENETDSTSRGQKRKHCPEMEDEEEESDSDNEDDDTPMSYKALLSDSRKKGRIVPENEDDAVFDVDDEKGHAPANIDEEEDDEDNEDEEVPESDDDDEFEDMAALIERQISDAVDEKDQ	binds
AKT-1 (enzyme, UniProt Q17941 1-541) MSMTSLSTKSRRQEDVVIEGWLHKKGEHIRNWRPRYFMIFNDGALLGFRAKPKEGQPFPEPLNDFMIKDAATMLFEKPRPNMFMVRCLQWTTVIERTFYAESAEVRQRWIHAIESISKKYKGTNANPQEELMETNQQPKIDEDSEFAGAAHAIMGQPSSGHGDNCSIDFRASMISIADTSEAAKRDKITMEDFDFLKVLGKGTFGKVILCKEKRTQKLYAIKILKKDVIIAREEVAHTLTENRVLQRCKHPFLTELKYSFQEQHYLCFVMQFANGGELFTHVRKCGTFSEPRARFYGAEIVLALGYLHRCDIVYRDMKLENLLLDKDGHIKIADFGLCKEEISFGDKTSTFCGTPEYLAPEVLDDHDYGRCVDWWGVGVVMYEMMCGRLPFYSKDHNKLFELIMAGDLRFPSKLSQEARTLLTGLLVKDPTQRLGGGPEDALEICRADFFRTVDWEATYRKEIEPPYKPNVQSETDTSYFDNEFTSQPVQLTPPSRSGALATVDEQEEMQSNFTQFSFHNVMGSINRIHEASEDNEDYDMG	binds

Further lines, results first:

binding	Binder
binds	PFS-2 (protein, UniProt U4PCM1 1-809) MNGGMMRGNQMPNVTLTIQPSTSSMQNSQPRIMNNHHHPHNRFQREHVMPDVMGDGPGRRLRKNVANVRRHVDYVSTVLNHCENRLWQYGKQRILQQPDILYQQYAVPADSTPDVPVDCILTKFIRTAMNKVKCPVYSVCWSPEGKRLITGCQTGEFTLWNGTAFNFETILQAHDSAIRALKWASNEQWLLSADQGGYVKYWQPNMNNAHMFSAHKDEAIRGLAFAPTDVKFATASDDGTARVWDFARYTEERVLRGHGAEVRCIDWHPTKGLIATGSRDTQQPVKIWDPKSGSCLATLQEHKSSVMAVEFNKNGNWLLTGGRDHLVKMYDIRMMKEMRTYRAHKKEVISLAWHPIHEGLFVSGGGDGSIVYWMVDGEKEIGLLEHAHDQAIWSMKWHPLGHILATGSNDNNTKFWARNRPGDTVEDIFGLSNTNMIGHLDKEREPRMAPPKPSIETQETYRPDTFIPGMGLDEHLYEQLNRDHNMMTTDSTLLVPDDLTRQNFAPMIGAKRTLIKQPPAKKAQRQFERMWNNSKGIGAGSDDFTTMKGGLGREDAEGAQFGPSKSFLGPPTTGGSLLGPSQPRPQEFRSVPPPQQQQGPPPNWRHQGPPMSGPGQGYGPPGRMGGNQGGWQRPPPQGSYGGQGPPQGSYGGQGTLQGSYASQQGPPPRQIQHIPSDIDYRTAPSSSNGSTGDVDMRTMVPNQPPSGEPEHWRGPPPVSHQQQSQQQHPPPINMQRMDPRRDPRMLSGRSDQLSPSGPPPQQQQSSAQQGGKNQWMPQFEAGQNQNQGNYAGNRGGGVGGRGRGRGQPY
binds	ZFP-1 (protein, UniProt P34447 1-867) MKEMVGGCCVCADENGWTDNPLIYCDGENCEVAVHQGCYGIQEVPEGEWFCAKCTKASAMMPGSINEATFCCQLCPFDYGALKKTDRNGWAHVICALYIPEVRFGNVHSMEPVILNDVPTDKFNKLCYICNEERPNDAKKGACMSCNKSTCKRSFHVTCAQRKGLLCEEGAISRNVKYCGYCENHLKKAINDPAIKVIPACPPVQRLSKEQDKKKTVLLTSLPLPPPAPRLHMLADPLPIKSNKVNNVLGLGSAINAVSLEERPASGSTVNSGIFVPPPTAFSPPLTTSSRSSVAQDPSPPLTINKNSLSSSGPLIPSTAHLSATTASATPIMANGSTLPPSSETTVGTHCLQQLQIQSAAAAAITQNQIGPSELNGYPAASQLSSFMHEIPARNTTSVASLLPPGAAEYHLNGSGDEEKTVKAVLTAPLTKAKRIRDSKNDMMDKTHKRPRANARPPAVLGSMSSGSSGGTVGKSPSMQRLQNLVAPIVSETVTDFQRDRVADRTAAERRAAAAQSQPSTSTNGGPNVTIPAVVEVHTNSTNSTNHQNNGLTQNAPASTSMQAGTSSNDGVISQNGTSSTSQSNRLNLPSFMEQLLERQWDQGSSLLMANAHFDVAQLLSCLFQLKSENFRLEENLSGLRKRRDHLFALNSRLAEVNTLDVSKRQRSDGLLLQQQIAHHLDPTSIVPKAEVHKQEPLSAPTSVPLPANHSSSLFEDIKAPKATYSRKTPSNIPLTVPLSTAATALTTTTAASSGAPVNSNIQNHRATPSTAGAPMAATPIMTAVTSANELAALSPERAQALLNMYRMPLDANVAAQLSMITNFPGQVNPSLFSRLLAVNMMNGGLQPNGQPLSALPPPTSATPNGK
binds	LIN-9 (protein, UniProt P30630 1-644) MSSAVRSPRKKAASDTSDPDRTSSPYSLRETSKVPSRYRNEELYLSPSRSIKRTGSPKKSPAKRLNGGRDSPSVNSLTRNSSLTMLAKAALDYESSSCALEYIFQPKEERRPPRRALALSPPPAPSNDLLAKDLEMIEMHQNLVAGLDDLDNPANMTNEAVEHRDTQSFFNMFSTDQERSAMMKQFKTYKNQTSEDVSTFMRANIKKLYNLLRYKKARQWVMCEFFYSAIDEQIFKEENEFATIIRESFPNLKNWNLTRIEWRSIRKLLGKPRRCSKVFFEEERMYLEEKRMKIRSVYEGSYLNDPSIDLKDLPAKLPRPMVVGNRVFARIRNPYDGIYSGIIDAVIPKGFRIIFDKPDIPPTLVSDTEILLDGKLDLLSIAYFIEQANSKLPSGVRPFVAAVRDSSHPHLVRDVLVSRKIERSGGPLMGPNDERLNGKNAEMVGNFPLKFLVNLVKLTKLIDIKKGLIRQLNELNADAEIQNMTSDKYSKAFQEKYAKTIIDLEHVNQNIDINMNGIQDHHMYFSSNDISTSNMKPEAVRQMCSQQAGRFVEHCNQGLNVENVHALTLIQSLTAVLLQVRTMGTQKISAVDLQSLGDAISEIRTAIHPRNVAFFQDYVEVHMKQFHTIMLESGALAGTVSNRK
